# The other results are listed elsewhere or left out.
# B1: AT1G80310(18) (Arabidopsis thaliana), Q0WP36 (protein)
# chain: METTTTPLLPGDRSRCGWLRRRLRLKNPLSSELSGAVGDLGTFIPIVLTLTLVSNLDLSTTLIFTGFYNIATGLLFDIPMPVQPMKSIAAVAVSESPHLTPSQIAAAGASTAATLLLLGATGAMSFLYNIIPLPVVRGVQLSQGLQFAFTAIKYVRFNYDTATLKPSSSPRIWLGLDGLILALAALLFIILSTGSGNDREAEDGDLAETSSNESQSRRRRLRLLSSIPSALIVFALGLVLCFIRDPSIFKDLKFGPSKFHILRISWDDWKIGFLRAAIPQIPLSVLNSVIAVCKLSNDLFDKELSATTVSISVGVMNLIGCWFGAMPVCHGAGGLAGQYRFGARSGLSVIFLGIGKLIVGLVFGNSFVRILSQFPIGILGVLLLFAGIELAMASKDMNSKEDSFIMLVCAAVSMTGSSAALGFGCGVVLYLLLKLRTLDCSSVTLFSRSSDESQVDSEAAPRDV
# What was measured:
# Assay in all cases: glycan array binding signal (z-score within array); higher = stronger binding
# Details in all cases: glycan notation: IUPAC condensed, linker removed
# Glc(b1-4)Glc = biological target: Glc(b1-4)Glc
# Method in brief: (§1)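 Glycan array data were curated from 3228 arrays in the Consortium for Functional Glycomics database and kept only where the protein sequence was available. Glycan names were converted to IUPAC-condensed notation, and columns mapping to the same glycan were averaged. The binding signal is a within-array Z-score, averaged across arrays of the same protein sequence at different concentrations or buffers and across linkers. Negative Z-scores can be read as non-binding.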
# Glc(b1-6)Glc = biological target: Glc(b1-6)Glc
# Method in brief: as §1
# GlcA(b1-3)Gal = biological target: GlcA(b1-3)Gal
# Method in brief: as §1
# GlcA(b1-3)GlcNAc = biological target: GlcA(b1-3)GlcNAc
# Method in brief: as §1
# GlcA(b1-6)Gal = biological target: GlcA(b1-6)Gal
# Method in brief: as §1
# [1] = biological target: GlcA3S(b1-3)Gal(b1-4)GlcNAc(b1-2)Man
# Method in brief: as §1
# [2] = biological target: GlcA3S(b1-3)Gal(b1-4)GlcNAc(b1-3)Gal(b1-4)Glc
# Method in brief: as §1
# [3] = biological target: GlcNAc(a1-3)Gal(b1-4)GlcNAc
# Method in brief: as §1
# [4] = biological target: GlcNAc(a1-4)Gal(b1-3)GlcNAc
# Method in brief: as §1
# [5] = biological target: GlcNAc(a1-4)Gal(b1-4)GalNAc
# Method in brief: as §1
# [6] = biological target: GlcNAc(a1-4)Gal(b1-4)GlcNAc
# Method in brief: as §1
# [7] = biological target: GlcNAc(a1-4)Gal(b1-4)GlcNAc(b1-3)Gal(b1-4)Glc
# Method in brief: as §1
# [8] = biological target: GlcNAc(a1-4)Gal(b1-4)GlcNAc(b1-3)Gal(b1-4)GlcNAc
# Method in brief: as §1
# [9] = biological target: GlcNAc(a1-4)Gal(b1-4)GlcNAc(b1-3)Gal(b1-4)GlcNAc(b1-3)Gal(b1-4)GlcNAc
# Method in brief: as §1
# [10] = biological target: GlcNAc(a1-4)Gal(b1-4)GlcNAc(b1-3)Gal(b1-4)[Fuc(a1-3)]GlcNAc(b1-3)Gal(b1-4)[Fuc(a1-3)]GlcNAc
# Method in brief: as §1
# [11] = biological target: GlcNAc(a1-6)Gal(b1-4)GlcNAc
# Method in brief: as §1
# [12] = biological target: GlcNAc(b1-2)Gal(b1-3)GalNAc
# Method in brief: as §1
# [13] = biological target: GlcNAc(b1-2)Man(a1-3)[GlcNAc(b1-2)Man(a1-6)]Man(b1-4)GlcNAc(b1-4)GlcNAc
# Method in brief: as §1
# [14] = biological target: GlcNAc(b1-2)Man(a1-3)[GlcNAc(b1-2)Man(a1-6)]Man(b1-4)GlcNAc(b1-4)[Fuc(a1-6)]GlcNAc
# Method in brief: as §1
# [15] = biological target: GlcNAc(b1-2)Man(a1-3)[GlcNAc(b1-4)][GlcNAc(b1-2)Man(a1-6)]Man(b1-4)GlcNAc(b1-4)GlcNAc
# Method in brief: as §1
# [16] = biological target: GlcNAc(b1-2)Man(a1-3)[GlcNAc(b1-4)][GlcNAc(b1-2)Man(a1-6)]Man(b1-4)GlcNAc(b1-4)[Fuc(a1-6)]GlcNAc
# Method in brief: as §1
# [17] = biological target: GlcNAc(b1-2)[GlcNAc(b1-4)]Man(a1-3)[GlcNAc(b1-2)Man(a1-6)]Man(b1-4)GlcNAc(b1-4)GlcNAc
# Method in brief: as §1
# [18] = biological target: GlcNAc(b1-2)[GlcNAc(b1-4)]Man(a1-3)[GlcNAc(b1-4)][GlcNAc(b1-2)Man(a1-6)]Man(b1-4)GlcNAc(b1-4)GlcNAc
# Method in brief: as §1
# [19] = biological target: GlcNAc(b1-2)[GlcNAc(b1-4)]Man(a1-3)[GlcNAc(b1-4)][GlcNAc(b1-2)[GlcNAc(b1-6)]Man(a1-6)]Man(b1-4)GlcNAc(b1-4)GlcNAc
# Method in brief: as §1
# [20] = biological target: GlcNAc(b1-2)[GlcNAc(b1-4)]Man(a1-3)[GlcNAc(b1-4)][GlcNAc(b1-2)[GlcNAc(b1-6)]Man(a1-6)]Man(b1-4)GlcNAc(b1-4)[Fuc(a1-6)]GlcNAc
# Method in brief: as §1
# [21] = biological target: GlcNAc(b1-2)[GlcNAc(b1-6)]Man(a1-6)[GlcNAc(b1-2)Man(a1-3)]Man(b1-4)GlcNAc(b1-4)GlcNAc
# Method in brief: as §1
# [22] = biological target: GlcNAc(b1-2)[GlcNAc(b1-6)]Man(a1-6)[GlcNAc(b1-2)Man(a1-3)]Man(b1-4)GlcNAc(b1-4)[Fuc(a1-6)]GlcNAc
# Method in brief: as §1
# [23] = biological target: GlcNAc(b1-2)[GlcNAc(b1-6)]Man(a1-6)[GlcNAc(b1-4)][GlcNAc(b1-2)Man(a1-3)]Man(b1-4)GlcNAc(b1-4)GlcNAc
# Method in brief: as §1
# GlcNAc(b1-3)Fuc = biological target: GlcNAc(b1-3)Fuc
# Method in brief: as §1
# GlcNAc(b1-3)Gal = biological target: GlcNAc(b1-3)Gal
# Method in brief: as §1
# [24] = biological target: GlcNAc(b1-3)Gal(b1-3)GalNAc
# Method in brief: as §1
# GlcNAc(b1-3)Gal(b1-4)Glc = biological target: GlcNAc(b1-3)Gal(b1-4)Glc
# Method in brief: as §1
# [25] = biological target: GlcNAc(b1-3)Gal(b1-4)GlcNAc
# Method in brief: as §1
# [26] = biological target: GlcNAc(b1-3)Gal(b1-4)GlcNAc(b1-2)Man(a1-3)[GlcNAc(b1-3)Gal(b1-4)GlcNAc(b1-2)Man(a1-6)]Man(b1-4)GlcNAc(b1-4)GlcNAc
# Method in brief: as §1
# [27] = biological target: GlcNAc(b1-3)Gal(b1-4)GlcNAc(b1-2)Man(a1-3)[GlcNAc(b1-3)Gal(b1-4)GlcNAc(b1-2)Man(a1-6)]Man(b1-4)GlcNAc(b1-4)[Fuc(a1-6)]GlcNAc
# Method in brief: as §1
# [28] = biological target: GlcNAc(b1-3)Gal(b1-4)GlcNAc(b1-2)[GlcNAc(b1-3)Gal(b1-4)GlcNAc(b1-6)]Man(a1-6)[GlcNAc(b1-3)Gal(b1-4)GlcNAc(b1-2)Man(a1-3)]Man(b1-4)GlcNAc(b1-4)GlcNAc
# Method in brief: as §1
# [29] = biological target: GlcNAc(b1-3)Gal(b1-4)GlcNAc(b1-3)Gal(b1-4)GlcNAc
# Method in brief: as §1
binder,measurement,setting,value
B1,glycan array binding signal (z-score),Glc(b1-4)Glc,1.3
same,glycan array binding signal (z-score),Glc(b1-6)Glc,0.34
same,glycan array binding signal (z-score),GlcA(b1-3)Gal,0.291
same,glycan array binding signal (z-score),GlcA(b1-3)GlcNAc,-0.665
same,glycan array binding signal (z-score),GlcA(b1-6)Gal,-0.36
same,glycan array binding signal (z-score),[1],-0.96
same,glycan array binding signal (z-score),[2],-0.808
same,glycan array binding signal (z-score),[3],-0.113
same,glycan array binding signal (z-score),[4],2.29
same,glycan array binding signal (z-score),[5],-0.769
same,glycan array binding signal (z-score),[6],-0.622
same,glycan array binding signal (z-score),[7],-0.701
same,glycan array binding signal (z-score),[8],-0.72
same,glycan array binding signal (z-score),[9],0.229
same,glycan array binding signal (z-score),[10],0.68
same,glycan array binding signal (z-score),[11],-0.864
same,glycan array binding signal (z-score),[12],0.232
same,glycan array binding signal (z-score),[13],-0.094
same,glycan array binding signal (z-score),[14],1.56
same,glycan array binding signal (z-score),[15],-0.484
same,glycan array binding signal (z-score),[16],0.221
same,glycan array binding signal (z-score),[17],0.74
same,glycan array binding signal (z-score),[18],-0.861
same,glycan array binding signal (z-score),[19],0.419
same,glycan array binding signal (z-score),[20],-0.097
same,glycan array binding signal (z-score),[21],-0.524
same,glycan array binding signal (z-score),[22],-0.496
same,glycan array binding signal (z-score),[23],0.144
same,glycan array binding signal (z-score),GlcNAc(b1-3)Fuc,-0.731
same,glycan array binding signal (z-score),GlcNAc(b1-3)Gal,-0.25
same,glycan array binding signal (z-score),[24],0.308
same,glycan array binding signal (z-score),GlcNAc(b1-3)Gal(b1-4)Glc,2.64
same,glycan array binding signal (z-score),[25],1.55
same,glycan array binding signal (z-score),[26],0.32
same,glycan array binding signal (z-score),[27],0.074
same,glycan array binding signal (z-score),[28],0.877
same,glycan array binding signal (z-score),[29],-0.512

# In another format: results already given.
binder	measurement	setting	value
B1	glycan array binding signal (z-score)	[13]	-0.094
same	glycan array binding signal (z-score)	[24]	0.308

# — the supplement of paper PMC8728848
